# Reference: the supplement of paper PMC10849652
# Amino acid sequences for entries named in this document (tags omitted). A change or cut given only in a name is not applied to a line headed by its entry.
# UniProt P53367: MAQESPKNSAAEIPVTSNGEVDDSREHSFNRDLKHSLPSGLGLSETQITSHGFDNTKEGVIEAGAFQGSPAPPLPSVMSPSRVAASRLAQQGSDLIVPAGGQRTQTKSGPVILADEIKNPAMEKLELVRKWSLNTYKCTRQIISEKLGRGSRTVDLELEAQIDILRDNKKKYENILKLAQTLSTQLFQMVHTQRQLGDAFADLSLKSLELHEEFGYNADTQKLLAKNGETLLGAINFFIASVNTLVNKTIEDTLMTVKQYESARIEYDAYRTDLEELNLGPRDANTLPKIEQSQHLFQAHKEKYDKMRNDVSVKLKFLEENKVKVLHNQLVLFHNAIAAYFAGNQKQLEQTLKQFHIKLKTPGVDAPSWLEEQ
# UniProt Q9NWB6: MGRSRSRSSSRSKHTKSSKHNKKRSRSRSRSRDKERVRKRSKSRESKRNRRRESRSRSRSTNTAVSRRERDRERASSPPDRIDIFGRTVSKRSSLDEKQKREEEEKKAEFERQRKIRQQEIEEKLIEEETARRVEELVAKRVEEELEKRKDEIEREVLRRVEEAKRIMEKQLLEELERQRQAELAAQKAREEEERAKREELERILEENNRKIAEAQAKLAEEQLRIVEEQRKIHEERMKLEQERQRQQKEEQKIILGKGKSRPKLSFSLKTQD
# UniProt Q8NFD5, whole entry, looked up: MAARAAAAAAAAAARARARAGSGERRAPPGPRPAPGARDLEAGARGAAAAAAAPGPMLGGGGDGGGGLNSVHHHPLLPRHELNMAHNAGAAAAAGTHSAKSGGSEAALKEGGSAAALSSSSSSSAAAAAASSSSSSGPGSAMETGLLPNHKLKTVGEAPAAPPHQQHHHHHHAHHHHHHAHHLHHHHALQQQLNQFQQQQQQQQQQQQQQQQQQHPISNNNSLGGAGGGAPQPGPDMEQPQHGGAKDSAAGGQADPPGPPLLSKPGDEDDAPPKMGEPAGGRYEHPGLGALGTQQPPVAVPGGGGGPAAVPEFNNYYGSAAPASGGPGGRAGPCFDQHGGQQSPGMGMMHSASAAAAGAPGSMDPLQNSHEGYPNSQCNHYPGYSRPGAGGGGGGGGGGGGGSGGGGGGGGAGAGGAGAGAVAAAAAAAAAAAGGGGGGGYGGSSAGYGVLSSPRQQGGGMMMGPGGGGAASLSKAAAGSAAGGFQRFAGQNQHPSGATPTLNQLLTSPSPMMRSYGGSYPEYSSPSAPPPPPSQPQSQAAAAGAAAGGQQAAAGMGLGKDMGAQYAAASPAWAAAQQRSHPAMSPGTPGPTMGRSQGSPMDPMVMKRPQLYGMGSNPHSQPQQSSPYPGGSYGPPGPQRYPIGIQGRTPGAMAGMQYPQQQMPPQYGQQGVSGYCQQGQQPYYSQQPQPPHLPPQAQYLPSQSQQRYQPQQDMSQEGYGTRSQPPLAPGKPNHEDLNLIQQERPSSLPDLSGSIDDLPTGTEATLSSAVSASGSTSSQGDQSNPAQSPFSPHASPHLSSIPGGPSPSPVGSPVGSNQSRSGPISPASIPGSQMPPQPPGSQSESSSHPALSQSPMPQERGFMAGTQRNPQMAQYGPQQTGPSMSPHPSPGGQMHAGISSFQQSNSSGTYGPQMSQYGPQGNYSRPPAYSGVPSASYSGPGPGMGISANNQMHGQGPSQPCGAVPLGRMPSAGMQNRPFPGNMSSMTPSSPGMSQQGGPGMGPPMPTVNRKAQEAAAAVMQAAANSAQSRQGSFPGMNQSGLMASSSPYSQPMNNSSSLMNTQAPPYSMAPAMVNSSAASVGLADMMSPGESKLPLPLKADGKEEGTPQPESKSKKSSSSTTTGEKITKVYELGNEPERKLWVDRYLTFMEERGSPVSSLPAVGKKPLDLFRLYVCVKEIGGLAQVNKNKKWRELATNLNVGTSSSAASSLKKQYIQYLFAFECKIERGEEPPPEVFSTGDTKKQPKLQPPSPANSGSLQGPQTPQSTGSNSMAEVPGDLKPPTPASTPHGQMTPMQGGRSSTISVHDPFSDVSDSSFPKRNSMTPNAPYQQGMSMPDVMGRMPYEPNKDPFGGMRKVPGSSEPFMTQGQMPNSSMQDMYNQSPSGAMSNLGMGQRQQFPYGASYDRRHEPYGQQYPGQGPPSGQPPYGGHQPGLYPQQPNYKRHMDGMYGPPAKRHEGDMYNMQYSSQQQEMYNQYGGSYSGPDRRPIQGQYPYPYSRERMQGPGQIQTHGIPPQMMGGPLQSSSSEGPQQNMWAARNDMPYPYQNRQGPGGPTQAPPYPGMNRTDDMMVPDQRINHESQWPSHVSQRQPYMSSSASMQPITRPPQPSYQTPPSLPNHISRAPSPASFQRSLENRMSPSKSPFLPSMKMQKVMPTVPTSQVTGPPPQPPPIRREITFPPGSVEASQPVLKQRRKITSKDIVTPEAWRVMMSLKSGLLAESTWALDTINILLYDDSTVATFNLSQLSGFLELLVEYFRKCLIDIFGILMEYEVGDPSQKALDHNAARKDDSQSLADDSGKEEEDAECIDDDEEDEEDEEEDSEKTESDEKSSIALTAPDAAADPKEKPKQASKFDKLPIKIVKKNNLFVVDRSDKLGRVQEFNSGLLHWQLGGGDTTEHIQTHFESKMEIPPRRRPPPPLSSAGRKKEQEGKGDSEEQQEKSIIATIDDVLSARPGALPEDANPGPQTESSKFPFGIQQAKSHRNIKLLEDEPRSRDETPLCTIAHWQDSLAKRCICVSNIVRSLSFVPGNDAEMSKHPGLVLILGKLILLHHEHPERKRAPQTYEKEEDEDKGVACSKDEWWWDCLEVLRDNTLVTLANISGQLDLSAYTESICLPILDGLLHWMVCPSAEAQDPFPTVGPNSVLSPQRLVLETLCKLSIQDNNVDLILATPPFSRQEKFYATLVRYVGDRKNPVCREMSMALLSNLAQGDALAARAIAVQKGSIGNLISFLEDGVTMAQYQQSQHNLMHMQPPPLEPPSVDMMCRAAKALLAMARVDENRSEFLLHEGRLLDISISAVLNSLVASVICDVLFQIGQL
# UniProt Q13017, whole entry, looked up: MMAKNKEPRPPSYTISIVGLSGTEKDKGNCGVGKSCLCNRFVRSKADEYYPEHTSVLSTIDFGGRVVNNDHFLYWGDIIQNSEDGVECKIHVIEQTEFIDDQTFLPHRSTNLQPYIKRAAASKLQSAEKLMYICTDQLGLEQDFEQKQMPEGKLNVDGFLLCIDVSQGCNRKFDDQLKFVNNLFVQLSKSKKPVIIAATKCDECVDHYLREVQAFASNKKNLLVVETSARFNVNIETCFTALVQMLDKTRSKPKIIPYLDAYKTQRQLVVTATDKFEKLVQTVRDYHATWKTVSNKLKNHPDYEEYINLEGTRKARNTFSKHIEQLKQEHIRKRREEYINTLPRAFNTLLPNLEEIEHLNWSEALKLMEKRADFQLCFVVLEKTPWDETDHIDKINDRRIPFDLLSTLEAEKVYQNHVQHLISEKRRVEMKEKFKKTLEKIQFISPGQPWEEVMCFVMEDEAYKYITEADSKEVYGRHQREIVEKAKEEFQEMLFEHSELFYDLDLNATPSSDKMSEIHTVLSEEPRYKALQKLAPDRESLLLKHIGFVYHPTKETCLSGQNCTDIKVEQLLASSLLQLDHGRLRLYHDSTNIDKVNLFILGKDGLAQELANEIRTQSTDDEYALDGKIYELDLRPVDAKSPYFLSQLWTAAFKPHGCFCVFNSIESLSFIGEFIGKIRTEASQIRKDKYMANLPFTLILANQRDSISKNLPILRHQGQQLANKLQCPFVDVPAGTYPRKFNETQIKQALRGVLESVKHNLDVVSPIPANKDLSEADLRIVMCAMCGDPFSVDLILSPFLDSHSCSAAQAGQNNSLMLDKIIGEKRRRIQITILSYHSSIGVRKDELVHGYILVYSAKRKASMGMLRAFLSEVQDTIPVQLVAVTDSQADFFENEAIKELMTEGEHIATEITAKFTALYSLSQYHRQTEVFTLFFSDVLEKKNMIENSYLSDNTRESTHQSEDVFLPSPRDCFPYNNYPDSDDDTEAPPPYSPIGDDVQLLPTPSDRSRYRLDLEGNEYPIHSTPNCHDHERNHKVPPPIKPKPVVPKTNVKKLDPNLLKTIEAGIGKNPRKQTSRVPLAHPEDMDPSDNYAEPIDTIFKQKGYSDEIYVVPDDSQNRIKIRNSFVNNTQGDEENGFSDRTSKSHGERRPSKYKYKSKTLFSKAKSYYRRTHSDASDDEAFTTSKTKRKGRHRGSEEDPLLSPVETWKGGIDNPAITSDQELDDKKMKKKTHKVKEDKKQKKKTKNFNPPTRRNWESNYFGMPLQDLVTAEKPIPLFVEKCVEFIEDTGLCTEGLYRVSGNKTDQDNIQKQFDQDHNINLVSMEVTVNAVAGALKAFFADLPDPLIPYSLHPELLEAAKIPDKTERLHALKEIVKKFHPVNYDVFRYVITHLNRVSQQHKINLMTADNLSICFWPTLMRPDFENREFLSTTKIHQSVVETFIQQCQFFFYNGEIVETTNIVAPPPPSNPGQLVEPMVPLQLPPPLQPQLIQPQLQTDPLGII
# UniProt Q0VD83: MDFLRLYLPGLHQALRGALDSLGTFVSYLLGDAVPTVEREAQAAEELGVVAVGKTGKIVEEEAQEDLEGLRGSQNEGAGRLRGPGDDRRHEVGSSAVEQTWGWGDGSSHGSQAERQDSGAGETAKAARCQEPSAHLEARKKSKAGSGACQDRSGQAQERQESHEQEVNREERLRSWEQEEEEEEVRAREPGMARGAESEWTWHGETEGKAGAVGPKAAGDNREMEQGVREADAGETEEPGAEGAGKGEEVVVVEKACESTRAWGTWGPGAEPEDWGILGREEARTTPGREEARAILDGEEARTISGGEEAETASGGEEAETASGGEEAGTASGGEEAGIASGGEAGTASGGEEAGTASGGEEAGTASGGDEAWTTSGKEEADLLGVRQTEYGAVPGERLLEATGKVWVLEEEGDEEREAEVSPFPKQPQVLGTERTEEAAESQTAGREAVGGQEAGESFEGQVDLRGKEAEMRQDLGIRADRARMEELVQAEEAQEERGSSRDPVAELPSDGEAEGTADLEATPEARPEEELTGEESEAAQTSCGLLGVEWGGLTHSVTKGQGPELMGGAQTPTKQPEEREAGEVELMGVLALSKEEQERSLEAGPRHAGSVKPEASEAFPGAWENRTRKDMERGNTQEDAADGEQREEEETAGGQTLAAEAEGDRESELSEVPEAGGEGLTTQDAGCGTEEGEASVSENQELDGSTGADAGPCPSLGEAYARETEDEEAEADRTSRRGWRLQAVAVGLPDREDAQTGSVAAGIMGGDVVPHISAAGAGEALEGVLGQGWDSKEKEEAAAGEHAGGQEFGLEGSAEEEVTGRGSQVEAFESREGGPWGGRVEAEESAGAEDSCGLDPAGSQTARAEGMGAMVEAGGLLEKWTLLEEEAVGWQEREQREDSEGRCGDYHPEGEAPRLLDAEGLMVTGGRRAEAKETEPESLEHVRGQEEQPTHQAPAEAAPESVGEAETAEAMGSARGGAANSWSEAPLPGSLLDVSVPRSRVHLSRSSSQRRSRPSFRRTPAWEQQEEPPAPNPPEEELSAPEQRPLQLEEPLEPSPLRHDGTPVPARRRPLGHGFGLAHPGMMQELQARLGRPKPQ
# UniProt Q9HC16: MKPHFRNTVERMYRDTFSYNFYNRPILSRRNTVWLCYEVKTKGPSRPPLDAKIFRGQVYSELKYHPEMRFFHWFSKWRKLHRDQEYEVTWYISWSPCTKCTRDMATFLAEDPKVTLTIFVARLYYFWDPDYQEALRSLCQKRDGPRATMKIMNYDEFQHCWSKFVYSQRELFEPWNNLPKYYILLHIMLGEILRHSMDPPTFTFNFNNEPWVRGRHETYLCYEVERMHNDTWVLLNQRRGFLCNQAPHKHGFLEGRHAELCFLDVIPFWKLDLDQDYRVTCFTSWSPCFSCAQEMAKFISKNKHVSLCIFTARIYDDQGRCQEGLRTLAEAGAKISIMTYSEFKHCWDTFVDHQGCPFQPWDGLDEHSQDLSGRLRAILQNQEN
# UniProt Q7Z2E3: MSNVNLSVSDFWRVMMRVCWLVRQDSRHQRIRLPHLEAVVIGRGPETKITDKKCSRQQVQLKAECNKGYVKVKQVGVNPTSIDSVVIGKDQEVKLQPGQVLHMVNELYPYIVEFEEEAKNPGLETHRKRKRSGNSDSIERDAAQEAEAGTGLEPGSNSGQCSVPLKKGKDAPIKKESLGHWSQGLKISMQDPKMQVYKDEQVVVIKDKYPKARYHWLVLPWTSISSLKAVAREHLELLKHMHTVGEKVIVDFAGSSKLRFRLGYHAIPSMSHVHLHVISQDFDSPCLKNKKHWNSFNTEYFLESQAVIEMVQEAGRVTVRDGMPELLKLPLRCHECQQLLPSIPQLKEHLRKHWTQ
# UniProt Q6UXV4: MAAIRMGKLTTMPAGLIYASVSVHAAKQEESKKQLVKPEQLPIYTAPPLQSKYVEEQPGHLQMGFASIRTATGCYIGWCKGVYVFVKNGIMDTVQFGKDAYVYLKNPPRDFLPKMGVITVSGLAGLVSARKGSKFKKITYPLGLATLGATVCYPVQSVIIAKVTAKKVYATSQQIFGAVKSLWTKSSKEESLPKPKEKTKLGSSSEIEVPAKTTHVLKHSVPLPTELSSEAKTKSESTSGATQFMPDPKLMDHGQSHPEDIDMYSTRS
# The other results are listed elsewhere or left out.
# Key:
# Test in all cases: log2 fold change, soluble protein after heating vs DMSO (PISA); higher = thermal stabilisation; K562 lysate, 10 uM; active = over 0.2 and 3.5 SD of the protein, either way, in both replicates (recomputed)
# [1] = compound: CN1CC[C@H](c2c(O)cc(O)c3c(=O)cc(-c4ccccc4Cl)oc23)[C@H](O)C1 [alvocidib]
# Summary of the method: (§1)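 K562 pellets were dounce-homogenised in PBS pH 7.4 with 1 mM MgCl2, and the crude extract at 1 mg/mL protein was treated with 10 μM compound for 30 min. Aliquots were heated for 3 min across 48°C-58°C, pooled, and brought to 0.5% NP-40 at 4°C; soluble protein was the supernatant after 21,000xg for 90 min. Soluble protein was quantified by TMTpro 16plex LC-MS/MS with channel sums equalised, and reported as log2 fold change in thermal stability against DMSO controls, with values from duplicates.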
# [2] = compound: CN1CCc2c(c3ccccc3n2Cc2ccc(C(=O)NO)cc2)C1 [Tubastatin A]
# Summary of the method: as §1
# [3] = compound: CNC(=O)C1=CC=CC=C1NC2=NC(=NC=C2Cl)NC3=C(C=C(C=C3)N4CCOCC4)OC
# Summary of the method: as §1
# [4] = compound: CNC(=O)c1ccc(Nc2ncc(C(F)(F)F)c(NCc3nccnc3N(C)S(C)(=O)=O)n2)cc1 [defactinib]
# Summary of the method: as §1
# [5] = compound: CNc1nc(-c2ccc3c(N)n[nH]c3c2)cc(N2C[C@@H](C(=O)NC3CCCCC3)CC[C@H]2C)n1
# Summary of the method: as §1
# [6] = compound: COC(=O)N[C@@H](C)CNc1nccc(-c2cn(C(C)C)nc2-c2cc(Cl)cc(NS(C)(=O)=O)c2F)n1 [encorafenib]
# Summary of the method: as §1
# [7] = compound: COC(=O)[C@H](CCSC)NC(=O)C1=C(C=C(C=C1)NC[C@H](CS)N)C2=CC=CC=C2
# Summary of the method: as §1
# [8] = compound: COc1cc(Nc2ncc3c(n2)-c2ccc(Cl)cc2C(c2c(F)cccc2OC)=NC3)ccc1C(=O)O [alisertib]
# Summary of the method: as §1
# [9] = compound: COc1cc2nc(-c3cc(F)ccc3O)nc(N[C@@H]3CNC[C@H]3C(C)(C)O)c2cc1OC
# Summary of the method: as §1
# [10] = compound: COc1cc2ncnc(Nc3ccc(F)c(Cl)c3)c2cc1OCCCN1CCOCC1 [gefitinib]
# Summary of the method: as §1
# [11] = compound: CS(=O)(=O)CCNCc1ccc(-c2ccc3ncnc(Nc4ccc(OCc5cccc(F)c5)c(Cl)c4)c3c2)o1 [lapatinib]
# Summary of the method: as §1
# [12] = compound: CS(=O)(=O)N1CCN(Cc2cc3nc(-c4cccc5[nH]ncc45)nc(N4CCOCC4)c3s2)CC1 [pictilisib]
# Summary of the method: as §1
# [13] = compound: C[C@@H](Oc1cc(-c2cnn(C3CCNCC3)c2)cnc1N)c1c(Cl)ccc(F)c1Cl [crizotinib]
# Summary of the method: as §1
# [14] = compound: C[C@H](C1=CC=C(C=C1)C(=O)NC2=C3C=CNC3=NC=C2)N
# Summary of the method: as §1
# [15] = compound: C[C@H](Nc1ncnc2nc[nH]c12)c1cc2cccc(Cl)c2c(=O)n1-c1ccccc1 [duvelisib]
# Summary of the method: as §1
# [16] = compound: Cc1cc(Nc2cc(CN3CCOCC3)c3nc(C)c(Cc4ccc(Cl)cc4F)n3n2)n[nH]1 [gandotinib]
# Summary of the method: as §1
# [17] = compound: Cc1cc(Nc2cc(N3CCN(C)CC3)nc(Sc3ccc(NC(=O)C4CC4)cc3)n2)n[nH]1 [tozasertib]
# Summary of the method: as §1
# [18] = compound: Cc1ccc(-n2nc(C(C)(C)C)cc2NC(=O)Nc2ccc(OCCN3CCOCC3)c3ccccc23)cc1 [doramapimod]
# Summary of the method: as §1
# [19] = compound: Cc1ccc(NC(=O)c2ccc(CN3CC[C@H](N(C)C)C3)c(C(F)(F)F)c2)cc1Nc1nccc(-c2cncnc2)n1 [bafetinib]
# Summary of the method: as §1
# [20] = compound: Cc1cccc(CC(=O)N2CCc3c2ccc(-c2cn(C)c4ncnc(N)c24)c3F)n1
# Summary of the method: as §1
Target,log2 fold change [1],log2 fold change [2],log2 fold change [3],log2 fold change [4],log2 fold change [5],log2 fold change [6],log2 fold change [7],log2 fold change [8],log2 fold change [9],log2 fold change [10],log2 fold change [11],log2 fold change [12],log2 fold change [13],log2 fold change [14],log2 fold change [15],log2 fold change [16],log2 fold change [17],log2 fold change [18],log2 fold change [19],log2 fold change [20]
ARHGAP17 (UniProt Q68EM7),inactive: 0.003,inactive: -0.037,inactive: 0.014,inactive: 0.027,inactive: 0.004,inactive: -0.044,inactive: 0.016,inactive: 0,inactive: -0.013,inactive: -0.017,inactive: 0.004,inactive: -0.015,inactive: -0.047,inactive: 0.03,inactive: 0.006,inactive: -0.122,inactive: 0.071,inactive: 0.031,inactive: -0.005,inactive: -0.045
ARFIP1 (UniProt P53367),inactive: 0.015,inactive: -0.014,inactive: 0.004,inactive: -0.054,inactive: -0.007,inactive: -0.016,inactive: 0.016,inactive: -0.011,inactive: -0.015,inactive: 0.006,inactive: 0.009,inactive: -0.018,inactive: -0.026,inactive: 0.014,inactive: -0.019,inactive: -0.009,inactive: 0.015,inactive: -0.004,inactive: -0.025,inactive: 0.051
ARHGEF10 (UniProt O15013),inactive: -0.116,inactive: 0.046,inactive: 0.042,inactive: -0.141,inactive: -0.019,inactive: -0.064,inactive: -0.018,inactive: 0.016,inactive: 0.09,inactive: 0.117,inactive: -0.041,inactive: 0.151,inactive: -0.009,inactive: -0.08,inactive: 0.088,inactive: 0.124,inactive: 0.047,inactive: 0.001,inactive: -0.419,inactive: 0.036
ARPP19 (UniProt H3BMD8),inactive: -0.058,inactive: 0.051,inactive: 0.037,inactive: -0.014,inactive: 0.016,inactive: -0.056,inactive: -0.07,inactive: -0.029,inactive: -0.004,inactive: -0.049,inactive: -0.017,inactive: -0.035,inactive: -0.04,inactive: -0.161,inactive: 0.075,inactive: 0.118,inactive: -0.037,inactive: -0.016,inactive: 0.001,inactive: 0.097
ARGLU1 (UniProt Q9NWB6),inactive: -0.119,inactive: 0.018,inactive: -0.056,inactive: -0.049,inactive: 0.01,inactive: 0.012,inactive: -0.039,inactive: -0.006,inactive: 0.012,inactive: 0.006,inactive: 0.038,inactive: 0.013,inactive: 0.043,inactive: -0.062,inactive: -0.023,inactive: -0.119,inactive: 0.045,inactive: 0.019,inactive: -0.014,inactive: 0.013
ARAF (UniProt P10398),inactive: 0.036,inactive: -0.08,inactive: 0.019,inactive: -0.039,inactive: -0.105,active: 0.307,inactive: 0.093,inactive: -0.048,inactive: 0.007,inactive: 0.019,inactive: -0.019,inactive: 0.011,inactive: -0.041,inactive: -0.045,inactive: -0.025,inactive: -0.077,inactive: -0.007,inactive: 0.006,inactive: -0.047,inactive: -0.031
ARID1B isoform 3 (UniProt Q8NFD5),inactive: 0.037,inactive: -0.041,inactive: -0.026,inactive: 0.053,inactive: -0.011,inactive: 0.001,inactive: 0.001,inactive: 0.035,inactive: 0.004,inactive: -0.008,inactive: -0.022,inactive: -0.056,inactive: -0.006,inactive: -0.011,inactive: -0.043,inactive: 0.023,inactive: 0.033,inactive: -0.038,inactive: -0.046,inactive: 0.015
ARSB (UniProt P15848),inactive: 0.143,inactive: -0.018,inactive: -0.044,inactive: 0.046,inactive: 0.027,inactive: 0.012,inactive: -0.067,inactive: 0.045,inactive: 0.084,inactive: 0.116,inactive: -0.021,inactive: -0.096,inactive: 0.043,inactive: -0.091,inactive: 0.008,inactive: -0.017,inactive: 0.008,inactive: 0.058,inactive: 0.057,inactive: 0.041
ARHGAP5 (UniProt Q13017),inactive: 0.007,inactive: 0.01,inactive: -0.082,inactive: 0.037,inactive: -0.005,inactive: 0.082,inactive: 0,inactive: 0.005,inactive: 0.059,inactive: -0.018,inactive: -0.019,inactive: -0.053,inactive: -0.047,inactive: 0.014,inactive: -0.075,inactive: -0.006,inactive: -0.033,inactive: 0.077,inactive: -0.007,inactive: 0.023
APOBR (UniProt Q0VD83),inactive: 0.04,inactive: 0.049,inactive: 0.002,inactive: -0.011,inactive: 0.043,inactive: 0.005,inactive: -0.001,inactive: 0.041,inactive: 0.038,inactive: 0.021,inactive: -0.024,inactive: -0.015,inactive: 0.014,inactive: 0.008,inactive: 0.072,inactive: -0.049,inactive: 0.037,inactive: -0.022,inactive: -0.002,inactive: -0.018
APOBEC3G (UniProt Q9HC16),inactive: 0.035,inactive: -0.017,inactive: 0.013,inactive: 0.101,inactive: 0.062,inactive: 0.005,inactive: -0.044,inactive: 0.121,inactive: 0.028,inactive: 0.088,inactive: -0.053,inactive: -0.149,inactive: -0.056,inactive: 0.021,inactive: -0.018,inactive: 0.018,inactive: -0.018,inactive: -0.015,inactive: 0.084,inactive: -0.034
ARPC2 (UniProt O15144),inactive: 0.013,inactive: 0.031,inactive: 0.004,inactive: -0.014,inactive: -0.031,inactive: -0.013,inactive: -0.017,inactive: 0,inactive: 0.006,inactive: 0.002,inactive: -0.019,inactive: -0.001,inactive: 0.019,inactive: -0.049,inactive: 0.02,inactive: 0.018,inactive: -0.016,inactive: 0.015,inactive: 0.002,inactive: -0.025
APTX (UniProt Q7Z2E3),inactive: -0.022,inactive: -0.062,inactive: 0.022,inactive: -0.052,inactive: 0.115,inactive: 0.094,inactive: 0.081,inactive: -0.001,inactive: 0.026,inactive: 0.052,inactive: -0.074,inactive: -0.017,inactive: -0.017,inactive: 0.049,inactive: 0.056,inactive: 0,inactive: 0.126,inactive: 0.001,inactive: -0.05,inactive: -0.015
APOOL (UniProt Q6UXV4),inactive: -0.014,inactive: 0.021,inactive: 0.028,inactive: -0.001,inactive: 0.035,inactive: -0.003,inactive: 0.011,inactive: 0.024,inactive: 0.014,inactive: -0.046,inactive: 0.001,inactive: 0.031,inactive: 0.005,inactive: -0.053,inactive: 0.011,inactive: 0.082,inactive: -0.026,inactive: -0.018,inactive: 0.006,inactive: 0.032
ARHGEF6 (UniProt Q15052),inactive: 0.019,inactive: -0.246,inactive: 0.011,inactive: 0.05,inactive: 0.04,inactive: 0.053,inactive: 0.036,inactive: 0.035,inactive: 0.028,inactive: -0.097,inactive: 0.023,inactive: -0.008,inactive: -0.04,inactive: 0.004,inactive: -0.053,inactive: -0.042,inactive: 0.012,inactive: 0.018,inactive: 0.065,inactive: -0.004
ARHGEF1 (UniProt M0QZR4),inactive: 0.011,inactive: -0.085,inactive: 0.016,inactive: -0.005,inactive: -0.016,inactive: 0.022,inactive: 0.063,inactive: 0.001,inactive: -0.01,inactive: -0.014,inactive: 0.006,inactive: -0.011,inactive: -0.041,inactive: -0.038,inactive: -0.007,inactive: -0.012,inactive: 0.029,inactive: 0.02,inactive: -0.019,inactive: 0.106

# A second format for some results above.
Target | log2 fold change [1] | log2 fold change [2] | log2 fold change [3] | log2 fold change [4] | log2 fold change [5] | log2 fold change [6] | log2 fold change [7] | log2 fold change [8] | log2 fold change [9] | log2 fold change [10] | log2 fold change [11] | log2 fold change [12] | log2 fold change [13] | log2 fold change [14] | log2 fold change [15] | log2 fold change [16] | log2 fold change [17] | log2 fold change [18] | log2 fold change [19] | log2 fold change [20]
ARFIP1 (UniProt P53367) | inactive: 0.015 | inactive: -0.014 | inactive: 0.004 | inactive: -0.054 | inactive: -0.007 | inactive: -0.016 | inactive: 0.016 | inactive: -0.011 | inactive: -0.015 | inactive: 0.006 | inactive: 0.009 | inactive: -0.018 | inactive: -0.026 | inactive: 0.014 | inactive: -0.019 | inactive: -0.009 | inactive: 0.015 | inactive: -0.004 | inactive: -0.025 | inactive: 0.051
ARPP19 (UniProt H3BMD8) | inactive: -0.058 | inactive: 0.051 | inactive: 0.037 | inactive: -0.014 | inactive: 0.016 | inactive: -0.056 | inactive: -0.07 | inactive: -0.029 | inactive: -0.004 | inactive: -0.049 | inactive: -0.017 | inactive: -0.035 | inactive: -0.04 | inactive: -0.161 | inactive: 0.075 | inactive: 0.118 | inactive: -0.037 | inactive: -0.016 | inactive: 0.001 | inactive: 0.097
ARHGAP5 (UniProt Q13017) | inactive: 0.007 | inactive: 0.01 | inactive: -0.082 | inactive: 0.037 | inactive: -0.005 | inactive: 0.082 | inactive: 0 | inactive: 0.005 | inactive: 0.059 | inactive: -0.018 | inactive: -0.019 | inactive: -0.053 | inactive: -0.047 | inactive: 0.014 | inactive: -0.075 | inactive: -0.006 | inactive: -0.033 | inactive: 0.077 | inactive: -0.007 | inactive: 0.023
